In PMC6745501, “Plant photoreceptors and their signaling components compete for COP1 binding via VP peptide motifs” (The EMBO Journal, 2019):

B1: UVR8^12–381: UVR8 β-propeller core, residues 12–381 (protein, UniProt Q9FN03 12-381, looked up, fragment)
chain: APPRKVLIISAGASHSVALLSGDIVCSWGRGEDGQLGHGDAEDRPSPTQLSALDGHQIVSVTCGADHTVAYSQSGMEVYSWGWGDFGRLGHGNSSDLFTPLPIKALHGIRIKQIACGDSHCLAVTMEGEVQSWGRNQNGQLGLGDTEDSLVPQKIQAFEGIRIKMVAAGAEHTAAVTEDGDLYGWGWGRYGNLGLGDRTDRLVPERVTSTGGEKMSMVACGWRHTISVSYSGALYTYGWSKYGQLGHGDLEDHLIPHKLEALSNSFISQISGGWRHTMALTSDGKLYGWGWNKFGQVGVGNNLDQCSPVQVRFPDDQKVVQVSCGWRHTLAVTERNNVFAWGRGTNGQLGIGESVDRNFPKIIEALSVDG
B2: UVR8^12–415: UVR8 core with C-terminus extended to include the VP peptide motif, residues 12–415 (protein)
chain: APPRKVLIISAGASHSVALLSGDIVCSWGRGEDGQLGHGDAEDRPSPTQLSALDGHQIVSVTCGADHTVAYSQSGMEVYSWGWGDFGRLGHGNSSDLFTPLPIKALHGIRIKQIACGDSHCLAVTMEGEVQSWGRNQNGQLGLGDTEDSLVPQKIQAFEGIRIKMVAAGAEHTAAVTEDGDLYGWGWGRYGNLGLGDRTDRLVPERVTSTGGEKMSMVACGWRHTISVSYSGALYTYGWSKYGQLGHGDLEDHLIPHKLEALSNSFISQISGGWRHTMALTSDGKLYGWGWNKFGQVGVGNNLDQCSPVQVRFPDDQKVVQVSCGWRHTLAVTERNNVFAWGRGTNGQLGIGESVDRNFPKIIEALSVDGASGQHIESSNIDPSSGKSWVSPAERYAVVPDETG
modifications: left off: His10, N-terminal, cleaved | Twin-Strep, N-terminal, cleaved

Test system: COP1 WD40 domain
Assay: Grating-coupled interferometry (GCI) binding kinetics versus the COP1 WD40 domain
Design: species or system Arabidopsis
Conditions: ligand COP1 (2,000 pg/mm^2), analyte pre-monomerized by UV-B, highest concentration 2 μM, 25°C, 1:1 binding model
Method: For CRY2 activation, proteins were diluted to their final assay concentrations (as indicated in the figure legends) in Eppendorf tubes and exposed to 10 min of fluorescent light on ice.
The Creoptix WAVE system (Creoptix AG), a label‐free surface biosensor, was used to perform GCI experiments. All experiments were performed on 2PCH or 4PCH WAVEchips (quasi‐planar polycarboxylate surface; Creoptix AG). After a borate buffer conditioning (100 mM sodium borate pH 9.0, 1 M NaCl; Xantec), COP1 (ligand) was immobilized on the chip surface using standard amine‐coupling: 7 min activation [1:1 mix of 400 mM N‐(3‐dimethylaminopropyl)‐N′‐ethylcarbodiimide hydrochloride and 100 mM N‐hydroxysuccinimide (both Xantec)], injection of COP1 (10 μg/ml) in 10 mM sodium acetate pH 5.0 (Sigma) until the desired density was reached, and final quenching with 1 M ethanolamine pH 8.0 for 7 min (Xantec). […] Blank injections were used for double referencing and a dimethyl sulfoxide (DMSO) calibration curve for bulk correction. Analysis and correction of the obtained data were performed using the Creoptix WAVEcontrol software (applied corrections: X and Y offset; DMSO calibration; double referencing), and a one‐to‐one binding model or a heterogenous ligand model with bulk correction was used to fit all experiments.

Molecule | Rmax, + UV-B [pg/mm^2]
B1 | 3.394
B2 | 30.392
